This note sets out measurements from ChEMBL document CHEMBL3745658, “An Orally Bioavailable, Indole-3-glyoxylamide Based Series of Tubulin Polymerization Inhibitors Showing Tumor Growth Inhibition in a Mouse Xenograft Model of Head and Neck Cancer” (J Med Chem, 2015).

One may read the kinetic solubility as the concentration staying in solution when a stock, usually in DMSO, is diluted into the medium. A word on the solubility: it is how much of the substance goes into solution per volume. Read a low solubility as a poorly soluble substance.

Values after ≈ are worked out from the molar mass of the structure shown.

Data set [1] in a line: Solubility in 2% DMSO containing 50 mM potassium phosphate buffer solution at pH 7.4 by dynamic light scattering method.
A short description of data set [2]: Aqueous solubility of the compound by UV-HPLC. The following applies: buffer.

As to `COCCn1cc(C(=O)C(=O)Nc2ccc(OC)nc2)c2ccccc21`, in data set [1], the solubility (kinetic) turned out to be 80 µM (≈ 28.3 µg/mL). The same compound displayed a solubility in data set [2] of 10 µM (≈ 3.53 µg/mL).
